# Experimental data published in patent US20020103228A1, “Composition and method for use of pyridinium derivatives in cosmetic and therapeutic applications” (TORRENT PHARMACEUTICALS LTD., priority 1999, published 2002).
# Chains of the proteins cited; added tags and fusions are not shown. Residues count along the entry.
# UniProt P02769, 25-607: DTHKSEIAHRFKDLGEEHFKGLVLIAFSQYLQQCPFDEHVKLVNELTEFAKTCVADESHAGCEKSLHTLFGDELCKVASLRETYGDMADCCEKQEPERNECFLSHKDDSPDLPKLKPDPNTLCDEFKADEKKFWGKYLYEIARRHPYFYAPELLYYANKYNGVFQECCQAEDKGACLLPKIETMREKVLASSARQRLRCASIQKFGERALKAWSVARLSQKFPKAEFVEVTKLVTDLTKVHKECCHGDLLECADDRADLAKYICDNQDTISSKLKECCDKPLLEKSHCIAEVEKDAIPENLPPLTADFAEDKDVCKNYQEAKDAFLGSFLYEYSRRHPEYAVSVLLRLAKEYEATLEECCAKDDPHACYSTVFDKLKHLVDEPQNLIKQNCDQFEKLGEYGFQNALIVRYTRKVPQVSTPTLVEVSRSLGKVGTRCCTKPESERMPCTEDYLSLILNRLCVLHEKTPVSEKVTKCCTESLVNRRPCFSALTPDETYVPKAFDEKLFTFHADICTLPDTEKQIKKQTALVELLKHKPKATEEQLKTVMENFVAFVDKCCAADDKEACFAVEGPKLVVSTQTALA
# Some results were stated once for a whole list of compounds, not compound by compound.
# Target: T1, AGE-BSA (Bos taurus, UniProt P02769)
# T1 construct: Bovine serum albumin (fraction V) (BSA); from tissue; host or cells: bovine serum (fraction V); glycated in house with 1.6 M glucose at 37 °C for 16 weeks
# Assay: In-vitro AGE breaking activity by ELISA
# Assay type: biochemical, Bovine
# Details: comparison with PTB, Table 2
# Procedure: AGE breaking activity has been confirmed by the screening procedure as mentioned below:
# Methods of experiment: Elisa (Enzyme Linked Immunosorbent Assay)
# 160 mg/ml of protein, bovine serum albumin, BSA and 1.6M glucose sugar were dissolved in phosphate buffered saline, PBS. Sodium azide was added at 0.02% concentration as a preservative. The solution was filtered asceptically through a […] filter and kept for aging at 37° C. for 16 weeks. After 16 weeks the solution was dialyzed against PBS, aliquoted and stored at −20° C.
# To determine the AGE breaking activity, 10 μg/ml of the 16 weeks AGE-BSA was incubated with different concentrations of the test compounds at 37° C. for 24 hours and AGE breaking activity of the test compounds by ELISA was determined.
# ELISA was performed as follows
# 1. Different concentrations of 16 weeks AGE-BSA were coated on a microtiter plate as standard. Each concentration is coated in triplicates.
# 2. The test samples were coated on microtiter plate at a concentration of 5 ng to 20 ng per well in triplicates
# 3. The plate was incubated at 37° C. for one hour.
# 4. After incubation the plate was washed with PBST (PBS with 0.05% Tween 20).
# 5. Blocking with 5% skimmed milk in PBS at 37° C. for one hour was done.
# 6. The plate was washed with PBST.
# 7. Primary antibody against AGE-BSA was added and the plate is incubated at 37° C. for one hour.
# 8. The plate was washed with PBST
# 9. Secondary antibody anti rabbit HRPO (Horse-Radish Per Oxidase) conjugate was added and the plate is incubated at 37° C. for one hour.
# 10. The plate was washed with PBST.
# 11. Colour development with OPD (orthophenylenediamine dihydrochloride) and hydrogen peroxide was done.
# 12. OD (optical density) at (450 nm reading-620 nm reading) was measured after incubation at 37° C. for 15 minutes with Microplate ELISA Reader
# The breaker activity of the compounds were determined by the following formula: [formula]
# OD450-620Control=Absorbance of 20 ng AGE-BSA after incubation at 37° C. for 24 hours without test compound
# OD450-620Test=Absorbance of 20 ng AGE-BSA after incubation at 37° C. for 24 hours with required concentration of test compound
# Using specific examples, the % AGE breaking activity was calculated and recorded in Table 2.
Structure (SMILES),AGE breaking activity compared to PTB,potency of AGE breaking compared to PTB
"CCOC(=O)C[n+]1cccc(C(=O)NNc2ccccn2)c1.[Br-] [Compound 4, 1-(2-ethoxy-2-oxoethyl)-3-(2-(2-pyridyl)hydrazinocarbonyl)pyridinium bromide]",superior AGE breaking activity compared to PTB,–
"O=C(NNC(=O)c1ccc[n+](CC(=O)c2cccs2)c1)c1ccc[n+](CC(=O)c2cccs2)c1.[Br-].[Br-] [Compound 6, N,N′-bis[3-carbonyl-1-(2-thien-2′-yl-2-oxoethyl)pyridinium]hydrazine dibromide]",superior AGE breaking activity compared to PTB,–
"O=C(C[n+]1cccc(C(=O)NCCOC(=O)c2ccccc2)c1)Nc1ccccc1.[Cl-] [Compound 23, 1-(2-phenylamino-2-oxoethyl)-3-((benzoyloxy)ethylaminocarbonyl)pyridinium chloride]",superior AGE breaking activity compared to PTB,–
"O=C(NNC(=O)c1ccc[n+](CC(=O)c2cccs2)c1)c1ccc[n+](CC(=O)c2cccs2)c1.[Cl-].[Cl-] [Compound 33, N,N′-bis[3-carbonyl-1-(2-thien-2′-yl-2-oxoethyl)pyridinium]hydrazine dichloride]",superior AGE breaking activity compared to PTB,–
"O=C(C[n+]1cccc(C(=O)NNC(=O)c2ccc[n+](CC(=O)NC3CC3)c2)c1)NC1CC1.[Cl-].[Cl-] [Compound 39, N,N′-bis-[3-carbonyl-1-(2-cyclopropylamino-2-oxoethyl)pyridinium]hydrazine dichloride]",superior AGE breaking activity compared to PTB,–
"COCCNC(=O)c1cc(Br)c[n+](CC(=O)c2cccs2)c1.[Cl-] [Compound 47, 1-(2-thien-2′-yl-2-oxoethyl)-3-((2-methoxyethyl)aminocarbonyl)-5-bromo pyridinium chloride]",superior AGE breaking activity compared to PTB,–
"Cc1ccc(C(=O)NNC(=O)c2ccc[n+](CC(=O)c3cccs3)c2)c[n+]1CC(=O)c1cccs1.[Cl-].[Cl-] [Compound 49, 1-[1-(2-thien-2′yl-2-oxoethyl)-6-methyl-3-carbonylpyridinium]-2-[1-(2-Thien-2′-yl-2-oxoethyl)-3-carbonylpyridinium]hydrazine dichloride]",superior AGE breaking activity compared to PTB,significantly much higher
"CC(C)S(=O)(=O)NNC(=O)c1ccc[n+](CC(=O)c2cccs2)c1.[Br-] [Compound 50, 1-(2-thien-2′-yl-2-oxoethyl)-3-(isopropylsulfonyl hydrazinocarbonyl)pyridinium bromide]",superior AGE breaking activity compared to PTB,–
"CS(=O)(=O)NNC(=O)c1cc(Br)c[n+](CC(=O)c2cccs2)c1.[Br-] [Compound 53, 1-(2-thien-2′-yl-2-oxoethyl)-3-(methanesulfonyl hydrazinocarbonyl)-5-bromo pyridinium bromide]",superior AGE breaking activity compared to PTB,–
"CCOC(=O)NNC(=O)c1ccc[n+](CC(=O)c2cccs2)c1.[Br-] [Compound 54, 1-(2-thien-2′-yl-2-oxoethyl)-3-(ethoxycarbonyl hydrazinocarbonyl)pyridinium bromide]",superior AGE breaking activity compared to PTB,–
"CS(=O)(=O)NNC(=O)c1ccc[n+](CC(=O)c2ccc(Cl)s2)c1.[Br-] [Compound 55, 1-(2-(5-chlorothien-2-yl)-2-oxoethyl)-3-(methanesulfonyl hydrazinocarbonyl)pyridinium bromide]",superior AGE breaking activity compared to PTB,–
"Cc1ccc(C(=O)NNS(C)(=O)=O)c[n+]1CC(=O)c1cccs1.[Br-] [Compound 57, 1-(2-thien-2′-yl-2-oxoethyl)-3-(methanesulfonyl hydrazinocarbonyl)-6-methyl pyridinium bromide]",superior AGE breaking activity compared to PTB,significantly much higher
"Cc1ccc(C(=O)C[n+]2cccc(C(=O)NNC(=O)c3ccc[n+](CC(=O)c4ccc(C)s4)c3)c2)s1.[Cl-].[Cl-] [Compound 58, N,N′-bis[3-carbonyl-1-(2-(5-methylthien-2-yl)-2-oxoethyl)pyridinium]hydrazine dichloride]",superior AGE breaking activity compared to PTB,significantly much higher
"NC(=O)c1cc(C(=O)NNC(=O)c2ccc[n+](CC(=O)c3cccs3)c2)c[n+](CC(=O)c2cccs2)c1.[Cl-].[Cl-] [Compound 60, 1-[1-(2-thien-2′-yl-2-oxoethyl)-5-aminocarbonyl-3-carbonylpyridinium]-2-[1-(2-Thien-2′-yl-2-oxoethyl)-3-carbonylpyridinium]hydrazine dichloride]",superior AGE breaking activity compared to PTB,significantly much higher
"O=C(NNC(=O)c1ccc[n+](CC(=O)c2ccc(Cl)s2)c1)c1ccc[n+](CC(=O)c2ccc(Cl)s2)c1.[Cl-].[Cl-] [Compound 62, N,N′-bis[3-carbonyl-1-(2-(5-chlorothien-2-yl)-2-oxoethyl)pyridinium]hydrazine dichloride]",superior AGE breaking activity compared to PTB,significantly much higher
"CS(=O)(=O)NNC(=O)c1ccc[n+](CC(=O)c2cc([N+](=O)[O-])cs2)c1.[Br-] [Compound 64, 1-(2-(4-nitrothien-2-yl)-2-oxoethyl)-3-(methanesulfonyl hydrazinocarbonyl)pyridinium bromide]",superior AGE breaking activity compared to PTB,significantly much higher
"O=C(C[n+]1cccc(C(=O)NNc2ccccc2)c1)Nc1ccccc1.[Cl-] [Compound 65, 1-(2-phenylamino-2-oxoethyl)-3-(phenyl hydrazinocarbonyl)pyridinium chloride]",superior AGE breaking activity compared to PTB,significantly much higher
CS(=O)(=O)NNC(=O)c1ccc[n+](CC(=O)c2ccc([N+](=O)[O-])s2)c1.[Cl-] [Compound 67],superior AGE breaking activity compared to PTB,significantly much higher
"O=C(NNS(=O)(=O)C(F)(F)F)c1ccc[n+](CC(=O)c2cccs2)c1.[Br-] [Compound 68, 1-(2-thien-2′-yl-2-oxoethyl)-3-(trifluoromethanesulfonyl hydrazinocarbonyl)-pyridinium bromide]",superior AGE breaking activity compared to PTB,significantly much higher
